Measurements published in publication PMC7819943, “Rice protein-binding microarrays: a tool to detect cis-acting elements near promoter regions in rice”.
This is one part of the list.

What follows are sequences tested against T1, OsSMF1 (Oryza sativa, UniProt Q6ZLB0 1-436) (assay: protein-binding microarray (RPBM); PBS, 2% BSA, 51.3 ng/ul salmon testes DNA, 50 uM zinc acetate, 200 nM TF, 25 C, 1 h; high values mean tight binding). Conditions: protein: recombinant; tags: N-terminal polyhistidine and DsRed monomer fusion (pET32a); chain copies: 2; label: CyDye5-dUTP incorporated in the synthesized complementary strand; 3' TTTTT single-stranded linker to array surface; dsDNA, one strand shown.
T1 sequence: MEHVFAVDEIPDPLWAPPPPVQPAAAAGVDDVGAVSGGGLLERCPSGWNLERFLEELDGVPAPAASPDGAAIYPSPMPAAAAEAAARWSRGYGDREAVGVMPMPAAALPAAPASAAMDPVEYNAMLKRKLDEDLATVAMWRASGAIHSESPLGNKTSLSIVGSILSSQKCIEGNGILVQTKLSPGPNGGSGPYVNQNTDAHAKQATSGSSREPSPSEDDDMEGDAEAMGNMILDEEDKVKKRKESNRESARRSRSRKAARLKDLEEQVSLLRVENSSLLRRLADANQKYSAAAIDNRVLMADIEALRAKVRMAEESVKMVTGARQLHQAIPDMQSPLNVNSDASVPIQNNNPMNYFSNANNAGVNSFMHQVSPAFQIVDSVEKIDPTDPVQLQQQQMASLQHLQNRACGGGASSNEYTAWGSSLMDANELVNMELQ
Outline: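 A custom Agilent array was converted to double-stranded form by primer extension with Cy5-dUTP and blocked with 2% BSA. Protein at 200 nM in PBS with 2% BSA, salmon testes DNA and 50 µM zinc acetate was applied for 1 h at 25 °C, followed by washing. The proteins were polyhistidine–DsRed N-terminal fusions of transcription factors, expressed in E. coli BL21-CodonPlus and Ni–NTA-purified. The binding signal is per-feature fluorescence intensity (arbitrary units) from an Axon 4000B scanner.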

| Sequence | binding signal |
| --- | --- |
| GTCCGTCGATTGTCTCTCCATGTCAGCAATACCAAATATGCGGAGTCACCTAGTGCAG | 6860 fluorescence intensity (a.u.) |
| TCTGTAAGATGAAGCCTCTTAGCAGAGATGACTCTCTAAACGGAGTCACCTAGTGCAG | 6940 fluorescence intensity (a.u.) |
| CTAGTAATGAATAGAAGACCTATGACATGTACAGTCAATGCGGAGTCACCTAGTGCAG | 4470 fluorescence intensity (a.u.) |
| ACCTTGAAAAGCCATCTCAACCAGTTTACACACGTCACAGCGGAGTCACCTAGTGCAG | 6450 fluorescence intensity (a.u.) |
| TAATAACCTAATACTGGGCCATGACTAAGCTAATGAATATCGGAGTCACCTAGTGCAG | 29600 fluorescence intensity (a.u.) |
| CCACCACTGCATGCGTCACCCCTCTCTATCCCTACCGCCCCGGAGTCACCTAGTGCAG | 11600 fluorescence intensity (a.u.) |
| TCGCACCTCCATTTCGCTACACGTACACGCCCTCCCACCGCGGAGTCACCTAGTGCAG | 4400 fluorescence intensity (a.u.) |
| GCATGGGAGGAGGCCGGGAGGAGGAGGCGGCGGCGGCGGCCGGAGTCACCTAGTGCAG | 3760 fluorescence intensity (a.u.) |
| CCTTTTGCCGGTGACAACGGCTCCACGTTGGTTTTGATTGCGGAGTCACCTAGTGCAG | 6280 fluorescence intensity (a.u.) |
| CATGCCTTGACCACATGCATGCTGACGTGGCAATCTAATCCGGAGTCACCTAGTGCAG | 30800 fluorescence intensity (a.u.) |
| GCACGGCCGGATCCCGCCGGCGCCGGCCACGATGAACGCGCGGAGTCACCTAGTGCAG | 3360 fluorescence intensity (a.u.) |
| TTTCCAGCTCGCTCCGTTCCTCGTCGATCATGTCACGGGCCGGAGTCACCTAGTGCAG | 3800 fluorescence intensity (a.u.) |
| CCCCTCCACTCGCCCTTCAATCTCCCACTGCCACCTCGGCCGGAGTCACCTAGTGCAG | 4120 fluorescence intensity (a.u.) |
| GTTTATTACGTGGATCTGTGAATTTGTTCATTGTGGACCTCGGAGTCACCTAGTGCAG | 8770 fluorescence intensity (a.u.) |
| CTTCCCAGGACTCTATCCATGCGTGGCAATCATCTTGAAGCGGAGTCACCTAGTGCAG | 7520 fluorescence intensity (a.u.) |
| TGCACTAGCTGATGACGTTTGGCGTTTGGAGAAAATTGGGCGGAGTCACCTAGTGCAG | 4340 fluorescence intensity (a.u.) |
| TCACGGTGGCTGAATAAATTATATGTTAACACGGAAGCCTCGGAGTCACCTAGTGCAG | 14600 fluorescence intensity (a.u.) |
| TGCAAGGAAAATCCCTTGGTCAGGTATGACACTTGCTGTTCGGAGTCACCTAGTGCAG | 3800 fluorescence intensity (a.u.) |
| CTTCGCGTGCGGTGTGCCGTGCGTGTATGTGACCACCGTCCGGAGTCACCTAGTGCAG | 4600 fluorescence intensity (a.u.) |
| TTGGATATTAGTAGTAGATTGGCCAACATCACCATGTCAACGGAGTCACCTAGTGCAG | 3340 fluorescence intensity (a.u.) |
| GCTGGGTTAGATTTATAAACGGGCCTCCTAGTCTATTCTGCGGAGTCACCTAGTGCAG | 3480 fluorescence intensity (a.u.) |
| AACAGTTATTAGTCAACTGATGGTGCCATGTCATACGGTGCGGAGTCACCTAGTGCAG | 11300 fluorescence intensity (a.u.) |
| CTTCCTGAACTGTTGATCAGATTGTGTGCATGTATGTATGCGGAGTCACCTAGTGCAG | 3270 fluorescence intensity (a.u.) |
| CCGAAATCCCGTACTTCCCACTGACACGTAGGCCCCACTGCGGAGTCACCTAGTGCAG | 8290 fluorescence intensity (a.u.) |
| TATCCATAAGATACAGATGACTCATCTTCTGATGTTCCATCGGAGTCACCTAGTGCAG | 12000 fluorescence intensity (a.u.) |
| TGCTGCCTTTATCATCACCAAGAGCCACTACCTTGCCTTACGGAGTCACCTAGTGCAG | 4370 fluorescence intensity (a.u.) |
| TCCACGCCGATCCGTCTCTCCTCGTCACCGCCGTGCAGAGCGGAGTCACCTAGTGCAG | 6270 fluorescence intensity (a.u.) |

Taken from above (2 entries):

| Sequence | binding signal |
| --- | --- |
| GCTGGGTTAGATTTATAAACGGGCCTCCTAGTCTATTCTGCGGAGTCACCTAGTGCAG | 3480 fluorescence intensity (a.u.) |
| AACAGTTATTAGTCAACTGATGGTGCCATGTCATACGGTGCGGAGTCACCTAGTGCAG | 11300 fluorescence intensity (a.u.) |
